# Results as given in the supplement of paper PMC10398353.
# Structures can show the parent of a compound that is named as a salt. ± gives the standard deviation of the averaged measurements. The list shows a part of the results. Single values of this set are uncertain.
# System: Salmonella enterica serovar Typhimurium ST313 D23580
# Assay: normalized bacterial growth (OD600 20 h minus 0 h, interquartile-mean normalized) (fraction of plate interquartile mean); higher = more bacterial growth (less inhibition)
# Conditions: LPM (pH 5.8, low phosphate, low Mg2+), concentration: 10 µM, temperature: 37 °C
row,SMILES,normalized bacterial growth
1,C[C@@H]1OC(=O)[C@H]2C[C@H]3CCCC[C@@H]3[C@@H](/C=C/[C@H]3CCC[C@H](C)N3C)[C@@H]12,1.2
2,CCn1cc(C(=O)O)c(=O)c2cc3c(cc21)OCO3 [Oxolinic acid],0.0836
3,CO[C@H]1C[C@H](O[C@H]2CC[C@]3(C=O)[C@H]4CC[C@]5(C)[C@@H](C6=CC(=O)OC6)CC[C@]5(O)[C@@H]4CC[C@]3(O)C2)O[C@H](C)[C@H]1O,0.989
4,"C[N+]1(C)CCN(c2ccccc2)CC1 [""1,1-Dimethyl-4-phenyl-piperazinium iodide""]",1.18
5,CCC1(c2ccc(N)cc2)CCC(=O)NC1=O (stereo not given) [()-p-Aminoglutethimide],0.977
6,C[C@H](Cc1ccc2c(c1)OC(C(=O)O)(C(=O)O)O2)NC[C@H](O)c1cccc(Cl)c1,1.15
7,CC1=C[C@]23C(=O)[C@@H](C=C(CO)[C@@H](O)[C@]2(O)[C@H]1O)[C@H]1[C@@H](C[C@H]3C)C1(C)C,1.16
8,CC[C@@]1([C@@H]2O[C@@H]([C@H]3O[C@@](O)(CO)[C@H](C)C[C@@H]3C)C[C@@H]2C)CC[C@H]([C@]2(C)CC[C@]3(C[C@H](O)[C@@H](C)[C@@H]([C@@H](C)[C@@H](OC)[C@H](C)C(=O)O)O3)O2)O1,0.841
9,CC[C@@]1([C@@H]2O[C@@H]([C@H]3O[C@@](O)(CO)[C@H](C)C[C@@H]3C)C[C@@H]2C)CC[C@H]([C@]2(C)CC[C@]3(C[C@H](O)[C@@H](C)[C@@H]([C@@H](C)[C@@H](OC)[C@H](C)C(=O)O)O3)O2)O1 [Monensin sodium salt],1.2
10,CCCN1CCC[C@H](c2cccc(O)c2)C1 [R(+)-3PPP hydrochloride],1.16
11,NC(=O)COc1c(F)cc(SCCNS(=O)(=O)c2ccccc2)cc1F,1.08
12,O=[N+]([O-])c1cc([As](=O)(O)O)ccc1O,0.66
13,c1ccc2c(c1)[I+]c1ccccc1-2 [Diphenyleneiodonium chloride],0.0305
14,"CC(=O)C1CCC2C3CCC4C[C@H](O)CCC4(C)C3C[C@H](O)C12C (stereo partly drawn) [""DIHYDROXY (3alpha,12alpha)PREGNAN-20-ONE""]",1.18
15,CCN1C[C@]2(COC(=O)c3ccccc3N3C(=O)C[C@H](C)C3=O)CC[C@H](OC)[C@@]34[C@@H]5C[C@H]6[C@H](OC)[C@@H]5[C@](O)(C[C@@H]6OC)[C@](O)([C@@H](OC)[C@H]23)[C@@H]14,0.937
16,CC(C)CCCC1(C)C=Cc2c(O)c3c(c(CCC(C)C)c2O1)OC12C(CC4CC1C(C)(C)OC2(CCC(C)C(=O)O)C4O)C3=O (stereo not given),0.585
17,COc1ccc2c(c[n+](C)c3c4cc5c(cc4ccc23)OCO5)c1OC,0.873
18,COc1ccc2c(c[n+](C)c3c4cc5c(cc4ccc23)OCO5)c1OC [Chelerythrine chloride],0.249
19,CNc1ccc2oc(C[C@H]3O[C@@]4(CC[C@H]3C)O[C@H]([C@H](C)C(=O)c3ccc[nH]3)[C@H](C)C[C@H]4C)nc2c1C(=O)O,0.656
20,CNc1ccc2oc(C[C@H]3O[C@@]4(CC[C@H]3C)O[C@H]([C@H](C)C(=O)c3ccc[nH]3)[C@H](C)C[C@H]4C)nc2c1C(=O)O [Calcimycin],0.205
21,C[C@]12C=CC(=O)C=C1CC[C@@H]1[C@@H]2CC[C@]2(C)C(=O)CC[C@@H]12,0.962
22,CCN1C[C@]2(COC)[C@H](O)C[C@H](OC)[C@@]34[C@@H]5C[C@@]6(O)[C@H](OC(=O)c7ccccc7)[C@@H]5[C@@](OC(C)=O)([C@@H]([C@H](OC)[C@H]23)[C@@H]14)[C@@H](O)[C@@H]6OC [Aconitine],0.894
23,CCN1C[C@]2(COC)[C@H](O)C[C@H](OC)[C@@]34[C@@H]5C[C@@]6(O)[C@H](OC(=O)c7ccccc7)[C@@H]5[C@@](OC(C)=O)([C@@H]([C@H](OC)[C@H]23)[C@@H]14)[C@@H](O)[C@@H]6OC,1.02 ± 0.08
24,CC(=O)CC1CCCCN1 (stereo not given),1.06

row,SMILES,normalized bacterial growth
1,CCN1C[C@]2(OC(=O)c3ccccc3NC(C)=O)CC[C@H](OC)[C@@]34[C@@H]2C[C@@H]([C@@H]13)[C@@]1(O)C[C@H](OC)[C@H]2C[C@@H]4[C@]1(O)[C@H]2OC,1.29 ± 0.063
2,CC[C@@]1(O)C[C@H](O[C@H]2C[C@H](N(C)C)[C@H](O)[C@H](C)O2)c2c(cc3c(c2O)C(=O)c2c(O)ccc(O)c2C3=O)[C@H]1C(=O)OC,0.864
3,C[C@H]1O[C@@H](C[N+](C)(C)C)CS1,1.08
4,Cc1nccc2c1[nH]c1ccccc12 [Harmane hydrochloride],0.794
5,CCCN1CCc2cccc3c2[C@H]1Cc1ccc(O)c(O)c1-3 [R(-)-Propylnorapomorphine hydrochloride],0.702
6,CCCN(CCC)C1CCc2cccc(O)c2C1 (stereo not given) [()-8-Hydroxy-DPAT hydrobromide],1.03
7,C=C1[C@H]2C[C@@]3([C@@H]1O)[C@@H](CC2=O)[C@]12[C@@H]4C[C@H]3[C@H]1N(CC)C[C@]4(C)CC[C@@H]2O,1.12
8,c1cncc(C2=NCCC2)c1,1.19
9,C=CCc1cc(OC)c2c(c1)OCO2,1.15
10,COc1ccc(C(=O)OC2CC3CCC(C2)N3C)cc1OC (stereo not given),0.944
11,C[N+]1([O-])[C@@H]2C[C@@H](OC(=O)[C@H](CO)c3ccccc3)C[C@H]1[C@@H]1O[C@@H]12 (stereo not given in full) [Scopolamin-N-oxide hydrobromide],1.03
12,O[C@@H]1CCCC[C@H]1N1CCC(c2ccccc2)CC1 [L(-)-vesamicol hydrochloride],0.838
13,O=C1CCCN1CC#CCN1CCCC1,1.21
14,O=C1CCCN1CC#CCN1CCCC1 [Oxotremorine sesquifumarate salt],1.06
15,COC1=CC(=O)O[C@@H](CCc2ccc3c(c2)OCO3)C1,0.883
16,CO[C@@H]1C[C@@H](C[C@H]2CC[C@H](C)[C@H]([C@@H](C)C(=O)O)O2)O[C@]2(O[C@](C)([C@H]3CC[C@@](C)([C@@H]4O[C@@H]([C@H]5O[C@@](O)(CO)[C@H](C)C[C@@H]5C)C[C@@H]4C)O3)C[C@H]2C)[C@@H]1C,1.18
17,Oc1cc(Cl)ccc1Oc1ccc(Cl)cc1Cl,0.072
18,CC1=C2[C@H]3OC(=O)[C@@H](C)[C@@H]3CC[C@@]2(C)C=CC1=O,1.18
19,OCC(O)Cc1ccc2c(c1)OCO2 (stereo not given),1.03
20,C/C=C1\C[C@@H](C)[C@](O)(CO)C(=O)OCC2=CCN3CC[C@@H](OC1=O)[C@@H]23,1.08
21,c1ccc(C2(c3ccccc3)CC2C2=NCCN2)cc1 (stereo not given) [Cibenzoline succinate],0.975
22,CCCN(CCC)C1CCc2ccc(O)cc2C1 (stereo not drawn) [R-(+)-7-Hydroxy-DPAT hydrobromide],0.863
23,CCCN(CCC)C1CCc2ccc(O)cc2C1 (stereo not given) [()-7-Hydroxy-DPAT hydrobromide],0.994
24,CCC(N)C(O)c1ccc(O)c(O)c1 (stereo not given),1.04

# Part of the list above in another layout:
row	SMILES	normalized bacterial growth
1	CCN1C[C@]2(OC(=O)c3ccccc3NC(C)=O)CC[C@H](OC)[C@@]34[C@@H]2C[C@@H]([C@@H]13)[C@@]1(O)C[C@H](OC)[C@H]2C[C@@H]4[C@]1(O)[C@H]2OC	1.29 ± 0.063
10	COc1ccc(C(=O)OC2CC3CCC(C2)N3C)cc1OC (stereo not given)	0.944
20	C/C=C1\C[C@@H](C)[C@](O)(CO)C(=O)OCC2=CCN3CC[C@@H](OC1=O)[C@@H]23	1.08

# The listing continues:

row,SMILES,normalized bacterial growth
1,CN(N=O)c1cc(O)ccc1O [Dephostatin],0.763
2,CC(N)Cc1c[nH]c2ccc(O)cc12 (stereo not drawn) [alpha-Methyl-5-hydroxytryptamine maleate],1.07
3,CN1C[C@H](CO)C=C2c3cccc4[nH]cc(c34)C[C@H]21,0.801
4,CN1C[C@H](CO)C=C2c3cccc4[nH]cc(c34)C[C@H]21 [Lysergol],0.813
5,N[C@H](CCCCCP(=O)(O)O)C(=O)O [D(-)-2-Amino-7-phosphonoheptanoic acid],0.859
6,CC(=O)O[C@H]1C[C@H](O[C@H]2[C@@H](O)C[C@H](O[C@H]3[C@@H](O)C[C@H](O[C@H]4CC[C@@]5(C)[C@H](CC[C@@H]6[C@@H]5C[C@@H](O)[C@]5(C)[C@@H](C7=CC(=O)OC7)CC[C@]65O)C4)O[C@@H]3C)O[C@@H]2C)O[C@H](C)[C@H]1O[C@@H]1O[C@H](CO)[C@@H](O)[C@H](O)[C@H]1O [Lanatoside C],0.88
7,CC(=O)O[C@H]1C[C@H](O[C@H]2[C@@H](O)C[C@H](O[C@H]3[C@@H](O)C[C@H](O[C@H]4CC[C@@]5(C)[C@H](CC[C@@H]6[C@@H]5C[C@@H](O)[C@]5(C)[C@@H](C7=CC(=O)OC7)CC[C@]65O)C4)O[C@@H]3C)O[C@@H]2C)O[C@H](C)[C@H]1O[C@@H]1O[C@H](CO)[C@@H](O)[C@H](O)[C@H]1O,0.918
8,Cc1c([C@H](C)[C@@H]2NC[C@@H](C)C[C@H]2O)ccc2c1C[C@H]1[C@H]2CC=C2C[C@@H](O)CC[C@@]21C,1.13
9,O=C1C=C2C(=CCOC2O)O1 (stereo not given),0.628
10,COc1ccc(CCN2CCC(Nc3nc4ccccc4n3Cc3ccc(F)cc3)CC2)cc1,1.03
11,COc1cc2c(cc1OC)[C@@]13CCN4CC5=CCO[C@H]6CC(=O)N2[C@H]1[C@H]6[C@H]5C[C@H]43,0.94
12,CC(C)(C)NCC(O)c1cc(Cl)c(N)c(Cl)c1 (stereo not given) [Clenbuterol hydrochloride],1.15
13,N[C@@H](CCl)C(=O)O [beta-Chloro-L-alanine hydrochloride],0.393
14,Fc1ccc(C(OCCN2CCN(CCCc3ccccc3)CC2)c2ccc(F)cc2)cc1,0.98
15,COC(=O)C1=CCCN(C)C1 [Arecoline hydrobromide],1.06
16,COC(=O)C1=CCCN(C)C1,0.992
17,O=C[C@H](Cl)[C@@H](O)[C@H](O)[C@H](O)CO [2-Chloro-2-deoxy-D-glucose],0.497
18,NNC(N)=O [Semicarbazide hydrochloride],1.04
19,O=C(NC(=O)c1c(F)cccc1F)Nc1cc(Cl)c(OC(F)(F)C(F)C(F)(F)F)cc1Cl (stereo not given),1.17
20,COc1cc2c(cc1OC)[C@H](C)NCC2,0.97822 ± 0.00057
21,COc1ccc(Cc2nccc3cc(OC)c(OC)cc23)cc1OC [Papaverine hydrochloride],1.2
22,COc1ccc(Cc2nccc3cc(OC)c(OC)cc23)cc1OC,1.26
